3 molecules from article PMC7473863 can be followed below.

Sequences of proteins named here, by UniProt entry; tags and fusion partners are left off. A change or cut given only in a name is not applied to a line headed by its entry. Residues count along the entry.
UniProt O55022: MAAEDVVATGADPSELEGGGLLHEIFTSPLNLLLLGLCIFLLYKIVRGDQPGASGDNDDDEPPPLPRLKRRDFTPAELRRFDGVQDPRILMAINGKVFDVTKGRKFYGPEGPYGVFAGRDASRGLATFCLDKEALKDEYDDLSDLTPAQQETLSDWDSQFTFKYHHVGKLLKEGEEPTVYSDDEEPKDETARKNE
UniProt P35951, residues 22-862: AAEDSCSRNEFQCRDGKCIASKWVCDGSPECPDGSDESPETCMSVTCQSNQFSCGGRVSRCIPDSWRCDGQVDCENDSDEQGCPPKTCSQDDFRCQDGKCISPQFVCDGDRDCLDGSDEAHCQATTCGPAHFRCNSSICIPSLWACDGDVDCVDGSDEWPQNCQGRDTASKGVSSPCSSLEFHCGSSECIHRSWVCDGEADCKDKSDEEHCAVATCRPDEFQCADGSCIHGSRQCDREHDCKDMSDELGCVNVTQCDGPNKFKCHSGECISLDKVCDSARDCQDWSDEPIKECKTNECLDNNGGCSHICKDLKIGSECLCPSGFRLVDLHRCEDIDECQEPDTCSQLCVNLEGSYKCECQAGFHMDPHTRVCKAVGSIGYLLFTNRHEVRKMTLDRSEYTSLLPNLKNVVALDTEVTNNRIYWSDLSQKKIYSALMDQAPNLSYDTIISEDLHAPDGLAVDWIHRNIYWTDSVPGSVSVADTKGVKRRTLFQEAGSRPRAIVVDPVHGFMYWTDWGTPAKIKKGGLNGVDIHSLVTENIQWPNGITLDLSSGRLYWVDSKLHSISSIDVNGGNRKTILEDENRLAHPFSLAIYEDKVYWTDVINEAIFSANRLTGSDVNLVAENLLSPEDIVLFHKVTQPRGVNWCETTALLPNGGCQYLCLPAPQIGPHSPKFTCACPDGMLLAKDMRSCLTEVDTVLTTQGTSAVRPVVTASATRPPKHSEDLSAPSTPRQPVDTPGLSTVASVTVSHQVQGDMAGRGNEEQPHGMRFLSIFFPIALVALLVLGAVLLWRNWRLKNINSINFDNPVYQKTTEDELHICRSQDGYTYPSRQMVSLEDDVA
UniProt P98156, residues 28-873: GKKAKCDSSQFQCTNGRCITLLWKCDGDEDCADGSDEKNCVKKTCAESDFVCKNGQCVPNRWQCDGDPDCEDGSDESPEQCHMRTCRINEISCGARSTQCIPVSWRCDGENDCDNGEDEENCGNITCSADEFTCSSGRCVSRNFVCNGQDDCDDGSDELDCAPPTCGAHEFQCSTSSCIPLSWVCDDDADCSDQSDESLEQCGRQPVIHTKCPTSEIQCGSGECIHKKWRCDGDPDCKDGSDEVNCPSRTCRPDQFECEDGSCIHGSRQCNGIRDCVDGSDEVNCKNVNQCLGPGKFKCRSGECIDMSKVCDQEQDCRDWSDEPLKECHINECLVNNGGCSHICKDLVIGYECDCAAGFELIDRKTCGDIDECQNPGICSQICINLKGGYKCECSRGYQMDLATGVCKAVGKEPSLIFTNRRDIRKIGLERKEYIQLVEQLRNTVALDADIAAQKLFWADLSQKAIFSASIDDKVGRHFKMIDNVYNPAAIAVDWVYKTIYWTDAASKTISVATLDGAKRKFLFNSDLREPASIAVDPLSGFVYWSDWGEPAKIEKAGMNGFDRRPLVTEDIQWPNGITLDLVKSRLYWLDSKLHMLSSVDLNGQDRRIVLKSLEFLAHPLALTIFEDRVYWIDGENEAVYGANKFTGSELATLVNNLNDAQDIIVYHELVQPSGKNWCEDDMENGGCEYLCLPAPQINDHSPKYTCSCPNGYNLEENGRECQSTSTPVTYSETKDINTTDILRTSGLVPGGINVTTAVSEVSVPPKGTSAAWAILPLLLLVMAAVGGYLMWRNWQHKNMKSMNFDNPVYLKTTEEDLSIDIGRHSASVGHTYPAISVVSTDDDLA

In test [1] the target is FLAG-tagged PGRMC1 Y113F mutant (mouse) (mouse) (UniProt O55022). As to the kind of experiment: co-IP; FLAG-PGRMC1 WT or Y113F overexpressed in 3T3L1 cells; NP40 lysis buffer (20 mmol/l Tris-HCl pH 7.5, 150 mmol/l NaCl, 1% NP40); lysate incubated with anti-FLAG (M2) agarose for 60 min at room temperature; endogenous partners detected by western blotting. (In general: A western blot detects proteins with antibodies after separation by electrophoresis.)

In test [2] the target is FLAG-tagged PGRMC1 WT (mouse progesterone receptor membrane-associated component 1) (mouse) (UniProt O55022). The test is described as above.
The target of test [3] is endogenous PGRMC1 of 3T3L1 cells (mouse (endogenous in 3T3L1)) (UniProt O55022). The experiment in a line: co-IP; 3T3L1 cell lysate incubated with 1 µg anti-PGRMC1 antibody or normal rabbit IgG for 2 h, then with protein A-sepharose beads overnight; washed three times in NP40 lysis buffer; western blotting.
Test [4] shares this target. Described as above. The source holds these as a separate data set.
In test [5] the target is FLAG-tagged PGRMC1 Y113F mutant (mouse) (mouse) (UniProt O55022). As to the kind of experiment: co-IP; FLAG-PGRMC1 WT or Y113F overexpressed in 3T3L1 cells; NP40 lysis buffer (20 mmol/l Tris-HCl pH 7.5, 150 mmol/l NaCl, 1% NP40); lysate incubated with anti-FLAG (M2) agarose for 60 min at room temperature; endogenous partners detected by western blotting. This is another data set of the same source.

For test [6], the target named is FLAG-tagged PGRMC1 WT (mouse progesterone receptor membrane-associated component 1) (mouse) (UniProt O55022). The test is described as above. This is another data set of the same source.

Like-named read-outs stand apart in the source and are kept apart here. These are yes or no findings as the source states them, for the method shown. Binding seen in cells or lysates may run through a third protein. Some results given as binding are weak or reduced against the parent protein; the word gives no strength. For some assays here: Sequences can lack the tags named with a protein.

Consider “low-density lipoprotein receptor (LDL-R), endogenous in 3T3L1 cells (from UniProt P35951 22-862)”, for which the binding result is “no binding” in test [1], “binds” in test [2] and “binds” in test [3].
As to “very-low-density lipoprotein receptor (VLDL-R), endogenous in 3T3L1 cells (from UniProt P98156 28-873)”, the binding entry in test [1] was “no binding”; in test [2], “binds”.

B1: glucose transporter 4 (GLUT4), endogenous in 3T3L1 cells (protein, UniProt P14142 1-509)
chain: MPSGFQQIGSDDGEPPRQRVTGTLVLAVFSAVLGSLQFGYNIGVINAPQKVIEQSYNATWLGRQGPGGPDSIPQGTLTTLWALSVAIFSVGGMISSFLIGIISQWLGRKRAMLANNVLAVLGGALMGLANAAASYEILILGRFLIGAYSGLTSGLVPMYVGEIAPTHLRGALGTLNQLAIVIGILVAQVLGLESMLGTATLWPLLLALTVLPALLQLILLPFCPESPRYLYIIRNLEGPARKSLKRLTGWADVSDALAELKDEKRKLERERPMSLLQLLGSRTHRQPLIIAVVLQLSQQLSGINAVFYYSTSIFESAGVGQPAYATIGAGVVNTVFTLVSVLLVERAGRRTLHLLGLAGMCGCAILMTVALLLLERVPAMSYVSIVAIFGFVAFFEIGPGPIPWFIVAELFSQGPRPAAMAVAGFSNWTCNFIVGMGFQYVADAMGPYVFLLFAVLLLGFFIFTFLKVPETRGRTFDQISAAFRRTPSLLEQEVKPSTELEYLGPDEND
In the case of B1, the values for the binding result in test [4], in test [5] and in test [6] were “binds”, “no binding” and “binds”, respectively.
